Our source for the binding values is paper doi:10.1101/2024.11.25.625148.

Sequences of proteins named here, by UniProt entry; tags and fusion partners are left off. Residues count along the entry.
UniProt Q8K2C6, residues 37-310: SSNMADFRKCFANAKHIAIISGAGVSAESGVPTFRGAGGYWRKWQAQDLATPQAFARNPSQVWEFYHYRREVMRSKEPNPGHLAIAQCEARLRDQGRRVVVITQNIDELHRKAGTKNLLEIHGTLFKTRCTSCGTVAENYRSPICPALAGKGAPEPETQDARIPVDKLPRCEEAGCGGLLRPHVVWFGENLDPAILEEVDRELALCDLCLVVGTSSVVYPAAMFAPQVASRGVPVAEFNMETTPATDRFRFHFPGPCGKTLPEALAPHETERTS

Where two headings read alike, the source gives them in different places. No constants are given. Whether binding was seen depends on the method and setting. In cells and extracts the contact can be indirect. Some results given as binding are weak or reduced against the parent protein; the word gives no strength.

The target in test [1] is Sirt5 (mouse (endogenous in HL-1 cells and mouse myocardium)) (UniProt Q8K2C6). In words: co-IP.
The target is the same in test [2]. Nature of the test: co-IP. The source holds these as a separate data set.

B1: adenine nucleotide translocase 2 (ANT2) (protein, UniProt P51881 1-298)
chain: MTDAAVSFAKDFLAGGVAAAISKTAVAPIERVKLLLQVQHASKQITADKQYKGIIDCVVRIPKEQGVLSFWRGNLANVIRYFPTQALNFAFKDKYKQIFLGGVDKRTQFWRYFAGNLASGGAAGATSLCFVYPLDFARTRLAADVGKAGAEREFKGLGDCLVKIYKSDGIKGLYQGFNVSVQGIIIYRAAYFGIYDTAKGMLPDPKNTHIFISWMIAQSVTAVAGLTSYPFDTVRRRMMMQSGRKGTDIMYTGTLDCWRKIARDEGSKAFFKGAWSNVLRGMGGAFVLVLYDEIKKYT
In the case of B1, the binding entry in test [1] and in test [2] was “binds” each time.
